# These are yes or no findings as the source states them, for the method shown. For part of these data: Binding seen in cells or lysates may run through a third protein. Some binding calls cover weakened binding; strength is not graded here.
# The chains behind the UniProt entries cited, without tags or fusion partners. Where a name states a change or a piece, a line headed by the entry shows the natural chain unless it says otherwise. A line that says so, or that is headed by a name, gives the form on record, which may keep a tag or linker.
# UniProt Q86XR7: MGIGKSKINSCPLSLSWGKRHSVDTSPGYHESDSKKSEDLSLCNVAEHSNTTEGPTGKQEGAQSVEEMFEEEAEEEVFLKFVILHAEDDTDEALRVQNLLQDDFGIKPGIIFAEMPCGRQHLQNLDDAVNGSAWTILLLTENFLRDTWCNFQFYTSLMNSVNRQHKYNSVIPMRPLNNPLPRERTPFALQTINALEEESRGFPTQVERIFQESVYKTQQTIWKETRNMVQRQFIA
# UniProt Q99836: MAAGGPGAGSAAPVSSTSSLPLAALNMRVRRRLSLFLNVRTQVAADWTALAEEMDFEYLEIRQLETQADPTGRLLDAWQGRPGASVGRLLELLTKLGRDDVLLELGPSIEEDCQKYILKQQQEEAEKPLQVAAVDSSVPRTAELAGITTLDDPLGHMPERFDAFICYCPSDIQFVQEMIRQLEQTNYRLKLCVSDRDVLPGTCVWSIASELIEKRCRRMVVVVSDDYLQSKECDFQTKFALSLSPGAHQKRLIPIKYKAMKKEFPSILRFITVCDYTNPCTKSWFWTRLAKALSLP
# GST-MyD88-TIR R196A-R288A (148-296) (Q99836, form named): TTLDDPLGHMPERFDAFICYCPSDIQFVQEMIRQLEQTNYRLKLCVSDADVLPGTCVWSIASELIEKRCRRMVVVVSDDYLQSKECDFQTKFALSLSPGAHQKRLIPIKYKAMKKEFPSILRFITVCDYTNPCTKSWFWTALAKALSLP
# Key:
# [1] = molecular target: FLAG-tagged TRAM (full-length) (human) (UniProt Q86XR7); test: co-IP; HEK293T co-transfected with IL-18Rβ, Myc-MyD88 (wild or R196A-R288A) and FLAG-TRAM; with or without IL-18 (10 ng/mL; 30 to 120 min); lysate in Tris-HCl pH 7.5, 10 mM NaCl, 10 mM EDTA, 0.5% Triton-X100; IP with anti-Myc or anti-FLAG M2 and Protein G MicroBeads; western blot
# [2] = molecular target: Myc-tagged MyD88 (full-length), wild type (UniProt Q99836); test: as above
# [3] = molecular target: GST-MyD88-TIR R196A-R288A (148-296) (UniProt Q99836); test: pull-down; GST fusion proteins held on Glutathione Sepharose 4B, three hours at 4°C; four washes with 20 mM potassium phosphate (pH 6.0), 100 mM KCl, 0.1 mM EDTA, 10 mM DTT, 0.5% Triton X100; SDS-PAGE with Coomassie staining; in triplicate; both purified
substance,measurement,setting,value
"Myc-tagged MyD88 (full-length), wild type (from UniProt Q99836 1-296)",binding,[1],binds
FLAG-tagged TRAM (full-length) (from UniProt Q86XR7 1-235),binding,[2],binds
TRAM-TIR (amino acid residues 66-235) (from UniProt Q86XR7 66-235) (domain or fragment),binding,[3],no binding

# Source: paper PMC3369926
